# From PubChem BioAssay AID493014 (National Center for Advancing Translational Sciences (NCATS), 2011)
# Screen size: about 340,000 compounds; about 170 (0.05%) were called active. This list was built around the results that the source calls inconclusive (neither active nor inactive); the mix of calls is not that of the screen. Calls follow the shape of the dose curve; as a rule, active = well fitted inhibition curve with a large enough effect in the signal ratio, with a control signal flat (not every such curve was filed as active); inconclusive = small, poorly fitted or top-dose-only effect, or effect the other way, or a change in a side signal; inactive = flat fitted curve, though single readings scatter; the % refers to the signal ratio. Potencies beside an inconclusive call are fits to weak or partial responses and may not hold up.
# Experiment: qHTS Assay to Find Inhibitors of Chronic Active B-Cell Receptor Signaling;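 as to activity change, negative = inhibition: plate controls were basal doxycycline-induced cells for no effect and cells given 10 µM MG132 for full effect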
# Settings: ABC-DLBCL IkBa-CBG/CBR reporter, luminescence ratio (green luciferase fused to IkBa over red control in TMD8 lymphoma cells), 4 h; activity change, negative = inhibition: at 46.1 µM (top of the series) unless noted
# Summary of the method: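 Cell line TMD8 (human ABC DLBCL), stably expressing tet-inducible CBG68-IkBa fusion and CBR; IMDM/0.5% FBS; cpd up to 46 uM; dox induction, 4 h, 37C/5% CO2; dual luminescence; green/red ratio; MG132 control.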
# Potency is read from the fitted curve at half-maximal effect.
Compound,"activity change, negative = inhibition",Potency
O=C(Nc1ccccc1C(=O)NCc1ccccc1)c1ccco1,inconclusive: 8.87%,–
O=S(=O)(Nc1ncccn1)c1ccc(NC(=S)N2CCN(Cc3ccc(F)cc3Cl)CC2)cc1,inactive: -0.42%,–
CCCn1c(=O)[nH]c(=O)c2c1nc(-c1ccc(OC(F)F)c(OC)c1)n2CCOC,inconclusive: -15.8%,–
O=C(NN=C1CCCCCC1)c1ccncc1,inactive: -19.7%,–
C/C(=N\Nc1nncc2ccccc12)c1ccc(C(C)(C)C)cc1,inconclusive: 1.56%,–
COc1ccc(CN2CCN(Cc3cccn3-c3ncccn3)CC2CCO)c(C)c1C (stereo not drawn),inconclusive: -9.74%,–
Cc1nnc(SC(=O)N2c3ccccc3Sc3ccccc32)s1,–,"inconclusive: 4.61 µM [falling, full curve]"
Cc1ccc(NC(=O)CCCc2nc3ccccc3s2)c(O)c1,inconclusive: -3.15%,–
COc1ccccc1Nc1ccc(C(=O)O)cc1[N+](=O)[O-],–,"inconclusive: 14.1 µM [falling, partial curve, poor fit]"
COC(=O)c1c(NC(=O)c2cccc(S(=O)(=O)N3CCN(C)CC3)c2)sc(C)c1C,inactive: 0.635%,–
CC1(c2ccc(Cl)cc2)NC(=O)N(CC(=O)Nc2ccc(F)cc2)C1=O (stereo not drawn),–,"inconclusive: 35.5 µM [falling, single point]"
O=C(Nc1ccc(Oc2cccc3ccccc23)cc1)c1ccco1,inconclusive: -25.4%,–
CCCCSc1ncc(C(=O)OCC)c(N)n1,inconclusive: -8.11%,–
CC1CCc2nc(NC(=O)C3COc4ccccc4O3)sc2C1 (stereo not drawn),–,"inconclusive: 0.461 µM [rising, full curve, poor fit]"
O=C(Cc1csc(N2CCOCC2)n1)N/N=C/c1ccc(O)c(O)c1O,inactive: 0.76%,–
CC(C)Cc1cc(C(=O)N2CCC(N3CCC(C(=O)NC4CC4)CC3)CC2)n[nH]1,–,"inconclusive: 20 µM [falling, partial curve]"
O=c1c2cc(Br)ccc2[nH]c(=S)n1Cc1cccnc1,inactive: 1.83%,–
CC1CCc2c(sc3nc(SCC(=O)NCc4ccco4)nc(N)c23)C1 (stereo not drawn),–,"inconclusive: 35.5 µM [falling, single point]"
O=C(N/N=C/c1cccn1-c1ccc(O)cc1)c1cccc2ccccc12,–,"inconclusive: 3.55 µM [rising, partial curve, poor fit]"
C=CCNc1nc(C(=O)OCC(=O)Nc2c(Cl)cccc2C(F)(F)F)cs1,inactive: -18.9%,–
COc1ccccc1N1CCN(S(=O)(=O)c2cccs2)CC1,inconclusive: 8.21%,–
CNC(=O)NC(=O)COC(=O)CCCSc1nc2ccccc2s1,inconclusive: 18.3%,–
Cc1cccc(-n2ccc(=O)c(C(=O)O)n2)c1,inconclusive: 1.32%,–
O=C1CCc2cc(S(=O)(=O)NCc3ccccc3)cc3c2N1CC3,inconclusive: 5.05%,–
CC1CCCCN1C(=O)COC(=O)CNC(=O)c1ccc(Cl)cc1Cl (stereo not drawn),inconclusive: 6.87%,–
Cc1ccc2nc(NC(=O)CC3Oc4ccccc4NC3=O)sc2c1 (stereo not drawn),inconclusive: 1.62%,–
COc1ccc(CCNC(=O)c2cc(Nc3ccccc3)nc3ccccc23)cc1OC,–,"inconclusive: 1.58 µM [rising, full curve, poor fit]"

Compound,"activity change, negative = inhibition",Potency
CCCCNC(=O)c1onc(CSc2ccccc2)c1C(=O)O,–,"inconclusive: 35.5 µM [falling, single point]"
Cc1c(NC(=O)c2nn(CC(C)C)c(=O)c3ccccc23)c(=O)n(-c2ccccc2)n1C,inactive: 5.08%,–
c1ccc(OCc2nnc(-c3ccccc3)o2)cc1,–,"inconclusive: 22.4 µM [falling, single point]"
C=CCc1cc(/C=N/n2cnnc2)cc(OCC)c1O,inconclusive: -0.182%,–
S=c1[nH]c(-c2ccccc2)cn1/N=C/c1ccncc1,inconclusive: 18.2%,–
O=C(O)CC1=C(Nc2ccccc2)C(=O)N(c2ccccc2)C1c1ccc(F)cc1 (stereo not drawn),–,"inconclusive: 23.1 µM [falling, single point]"
S=c1[nH]nc(CSc2nc3ccccc3s2)n1Cc1ccccc1,inactive: 12.7%,–
N#CC(C#N)=NNc1ccc(S(=O)(=O)N2CCCCC2)cc1,inconclusive: 16.2%,–
COc1ccc(C2C(C(C)=O)=C(O)C(=O)N2c2ccc(C)cc2)cc1 (stereo not drawn),inconclusive: 11.7%,–
Cc1ccc(C(=O)Nc2ccc(N3CCN(C(=O)c4cccs4)CC3)cc2)c(Cl)c1,inconclusive: -25.4%,–
Cc1cc2c(cc(C(=O)NCCCN3CCOCC3)n2Cc2ccc(Cl)cc2)o1,inconclusive: 1.08%,–
NC(=O)c1ccccc1NC(=O)CCCc1ccccc1,inconclusive: -8.42%,–
CC(NC(=O)CN(C)Cc1cccc(Cl)c1)c1ccccc1 (stereo not drawn),inactive: -0.674%,–
OC(c1cc(-c2ccc(Cl)cc2)nc2ccccc12)C1CCCCN1 (stereo not drawn),inconclusive: 1.99%,–
CCN(CC)c1ccc(N=Nc2nn(C)c(C)c2[N+](=O)[O-])cc1,inconclusive: 7.14%,–
COc1ccc(-c2nnn(Cc3nc(N)nc(N4CCOCC4)n3)n2)cc1OC,inconclusive: -4.43%,–
CCCCC(=O)NC(=S)Nc1nnn(CCC)n1,–,"inconclusive: 35.5 µM [cytotoxic, single point]"
O=C(COc1ccc(CO)cc1Cl)Nc1ccc(F)cc1,–,"inconclusive: 11.6 µM [falling, partial curve]"
CNC(=S)Nc1ccc(C23CC4CC(CC(C4)C2)C3)cc1,inactive: -3.91%,–
O=C(O)c1ccc(-c2nc3ccccc3s2)o1,inconclusive: 13.6%,–
O=C(O)COc1ccc(C(NC(=O)c2c(F)cccc2F)NC(=O)c2c(F)cccc2F)cc1,inactive: 0.0392%,–
O=C(Nc1ccc(-c2csc(-c3ccccc3)n2)cc1)c1ccccc1Cl,inconclusive: -12.5%,–
Cc1cccc2cc(CN(C(=O)c3cnccn3)C3CCCCC3)c(Cl)nc12,–,"inconclusive: 23.1 µM [rising, partial curve, poor fit]"
Cn1c(SCC(=O)c2ccc(O)c(O)c2)nnc1-c1cccs1,–,"inconclusive: 35.5 µM [falling, single point]"
COc1ccc(C(=O)CCC(=O)N2CCN(c3ccc(N4CCOCC4)nn3)CC2)cc1,inactive: 1.78%,–
NC(=O)CN1C(=O)C(O)(CC(=O)/C=C\C=C\c2ccccc2)c2ccccc21 (stereo not drawn),–,"inconclusive: 23.1 µM [falling, partial curve]"

# Entries of single compounds, quoted from the list:
# S=c1[nH]c(-c2ccccc2)cn1/N=C/c1ccncc1 as listed: activity change, negative = inhibition: inconclusive: 18.2%
# CCCCC(=O)NC(=S)Nc1nnn(CCC)n1 as listed: Potency: inconclusive: 35.5 µM [cytotoxic, single point]
# COc1ccc(C2C(C(C)=O)=C(O)C(=O)N2c2ccc(C)cc2)cc1 (stereo not drawn) as listed: activity change, negative = inhibition: inconclusive: 11.7%
# O=C(COc1ccc(CO)cc1Cl)Nc1ccc(F)cc1 as listed: Potency: inconclusive: 11.6 µM [falling, partial curve]
